Earlier results in patent publication US20250305982A1, “DEVICE AND METHOD FOR THE DETECTION OF BIOMARKERS ASSOCIATED WITH NEURODEGENERATIVE DISEASES” (CONSEJO NACIONAL DE INVESTIGACIONES CIENTÍFICAS Y TÉCNICAS …, priority 2022, published 2025).
For at least one compound, name, drawing or mass did not settle the structure.

Tested on: amyloid aggregates
Settings: González-Lizárraga (2017), Medina (2021); cited from earlier work

SMILES: C[C@H]1c2cccc(O)c2C(=O)C2=C(O)[C@]3(O)C(=O)C(C(N)=O)=C(O)[C@@H](N(C)C)[C@@H]3[C@@H](O)[C@@H]21 [Doxycycline]
- binding to amyloid aggregates structures: strong and specific binding
